Data on 80 substances can be found in the supplement of paper PMC5949888.

± gives the standard deviation of the averaged measurements. Most values lie at the floor of the assay. Slopes are relative: functional sequences can read slightly below zero. A value given as a limit tells only on which side of the number the result lay.

The test system of the data set is Saccharomyces cerevisiae PS128 hsf1 delta, HSF1(1-493) fusion. Kind of data set: growth estimate (transactivation domain function in HSF1 fusion, heat-shock survival) (a.u. (slope of normalised read count over time)); higher = stronger growth at 37°C, i.e. more transactivation activity. The conditions noted are these: library: random library.
With VGRNRVFCNCRRS, the growth estimate is below -0.25.

For GIL, the growth estimate is below -0.25.

For the substance LGSGRALA, the growth estimate is below -0.25.

Consider ECGSASSVG, for which the growth estimate was below -0.25.

For the substance IHGDGAQARVTGI, the growth estimate was below -0.25.

Take GAPMPKAPTVLSTLNGRSIA: the growth estimate was below -0.25.

As to GCVGYGV, the growth estimate was below -0.25.

Regarding QTGIFVSRNSDGPLGPHRLA, the growth estimate was below -0.25.

Take PQFRYSANVCEYSN: the growth estimate was 2.33.

Turning to SERNALARGGSVSIPVLPRR, the growth estimate was -0.245.

For GKWSNVKPMWVLR, the growth estimate was below -0.25.

Turning to SVQT, the growth estimate is below -0.25.

Consider RSSCWNSIVWHRI, for which the growth estimate is below -0.25.

For the substance SVPYPDIEKARQGWHYSHSR, the growth estimate was below -0.25.

With SYPTFTIG, the growth estimate is below -0.25.

VPGGISNGGNRRLGDGLEKP: the growth estimate is below -0.25.

Turning to PNSRRRQDVPKNWSREQTSL, the growth estimate is below -0.25.

In the case of SVGLRKDRSGPLL, the growth estimate was below -0.25.

On to HTYGPS, for which the growth estimate is below -0.25.

On to FPGTWSRRVVP, for which the growth estimate is below -0.25.

With LTVYSKVQLLFNLYILSKRP, the growth estimate was below -0.25.

As for APRTLRCEVLSGS, the growth estimate is -0.239.

Consider SAGLLARKHA, for which the growth estimate is below -0.25.

Turning to SFTTWGLKRASPENKFQRVT, the growth estimate is below -0.25.

On to NDRRQACYARGALHRISSFS, for which the growth estimate is below -0.25.

On to RVRSKWNLDLIHFGNRTPRA, for which the growth estimate is below -0.25.

Consider SRLEHRKLFVPLSVHECFRR, for which the growth estimate is below -0.25.

With SMAVRLISTAP, the growth estimate was below -0.25.

In the case of LRRW, the growth estimate is below -0.25.

In the case of YGEVTSVIYDSEVGNDVREH, the growth estimate was below -0.25.

Turning to GSLQFDF, the growth estimate was below -0.25.

In the case of SSNRAGNYQ, the growth estimate was below -0.25.

Consider EETRPQSCGTMPSGKRYSGD, for which the growth estimate is below -0.25.

In the case of GLRARANKRLSRWSPLSSR, the growth estimate is below -0.25.

Consider YVLIETRVSIQAVA, for which the growth estimate was -0.25.

In the case of IGDNWTYTSRGYTA, the growth estimate is below -0.25.

As to RVSQDY, the growth estimate was 1.45.

As to YETPPRETDCMLVNLSVLFV, the growth estimate is below -0.25.

For TCASAGALGSRVRNFRK, the growth estimate was -0.221.

As to VWLSIKIGKLLLQL, the growth estimate was below -0.25.

Regarding VMFQPWQSPNFLRPFA, the growth estimate is below -0.25.

In the case of CIRAERPVITRTGCMHSSDA, the growth estimate was below -0.25.

Regarding SRWNATGPWKCLAYRRFISK, the growth estimate was below -0.25.

In the case of DEHA, the growth estimate is below -0.25.

As to KKWIR, the growth estimate was below -0.25.

For VIANQAGDSVF, the growth estimate is below -0.25.

With WLFFMYTRSGNEANQAGDPK, the growth estimate was below -0.25.

Regarding LKQGLCRLGSSRVDHLRLDV, the growth estimate was below -0.25.

Turning to TGGWWSGGG, the growth estimate is below -0.25.

Turning to YIVGIPSIRSLA, the growth estimate is below -0.25.

As to ACMDQGLVFA, the growth estimate is below -0.25.

In the case of EQPTDIG, the growth estimate is below -0.25.

On to SRWPGSECGLLSGGVAFLSL, for which the growth estimate was below -0.25.

For MLSRPFLVRTATASVRLSID, the growth estimate is below -0.25.

As for IDRS, the growth estimate was below -0.25.

With IGNMGLVVLLCCGQLSILRP, the growth estimate is below -0.25.

For the substance TESPGYSESLKLLEGS, the growth estimate is below -0.25.

IAGHKKG: the growth estimate is below -0.25.

For DDRRIGSLPFRERFNYQVVQ, the growth estimate was below -0.25.

As to RCLLVTFNGSETCVSTYSCG, the growth estimate was below -0.25.

As for RCQ, the growth estimate is -0.163 ± 0.12.

As for SGCLKSLPGA, the growth estimate is -0.229.

Consider LVRV, for which the growth estimate is below -0.25.

VKPSLRRLHVGFYTS: the growth estimate is below -0.25.

Take LRIPATNDDDQT: the growth estimate was below -0.25.

As to QMVEG, the growth estimate was below -0.25.

For the substance RDISLAPS, the growth estimate was below -0.25.

RAKISEHPVPPCRHRRFVRR: the growth estimate is below -0.25.

IKGLMVRSNEYCFYCANTFP: the growth estimate is below -0.25.

Turning to RCVMNLRRGTVRNAHGVINR, the growth estimate was below -0.25.

For GRFQ, the growth estimate was below -0.25.

In the case of GTVW, the growth estimate was below -0.25.

As for KICCNQSTLRWDSMVVIEAP, the growth estimate is below -0.25.

As for GGLAS, the growth estimate is below -0.25.

RKTYVYSTLKQ: the growth estimate is below -0.25.

As for VLNLMVCPRARATPLNKCVA, the growth estimate is below -0.25.

As to ARFT, the growth estimate was below -0.25.

As for CLYFTLSSGSRCAR, the growth estimate was below -0.25.

For GMNGPPYHGPVGMWPQMRSQ, the growth estimate is below -0.25.

Consider IRPSVWIVGSQQGRAYTVGT, for which the growth estimate is below -0.25.
